Assay results taken from PubChem BioAssay AID504444 (National Center for Advancing Translational Sciences (NCATS), 2011).
The campaign covered roughly 360,000 compounds. About 7,500 (2.1%) were called active. The inconclusive results got no clear call from the source; some entries with a clear call stand among them for comparison. Calls come from the whole dose curve; as a rule, active = well fitted inhibition curve with a large enough effect; inconclusive = small, poorly fitted or top-dose-only effect, or effect the other way; inactive = flat fitted curve, though single readings scatter. A potency beside an inconclusive call is a rough fit, not a confirmed value.

Experiment: Nrf2 qHTS screen for inhibitors; note: nearly all actives have a fitted effect of over 60% in size
Settings: A549 ARE-Fluc reporter, luciferase luminescence, 18-24 h; series mostly up to 46 µM
Method in brief: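 A549 ARE_Fluc cells, 5000/well, 5% FBS OPTI-MEM; compounds in dose-response, 18-24 h at 37 °C/5% CO2; CellTiter-Fluor viability read (Ex 405/Em 525), then BugLite luciferase luminescence = Nrf2 activity.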
Potency is the fitted concentration of half-maximal effect.

| SMILES | Potency |
| --- | --- |
| Cc1ccc(OCCNC(=O)/C=C/c2ccco2)cc1C | inactive |
| CN(C)c1ccc(S(=O)(=O)N2CCC(Cc3ccccc3)CC2)cn1 | active: 20.6 µM |
| COc1ccccc1OCCCCn1c(C2CC(=O)N(c3ccccc3Cl)C2)nc2ccccc21 (stereo not drawn) | inconclusive: 29.1 µM [falling, single point] |
| COc1cccc(NC(=O)Nc2ccccc2Br)c1 | inconclusive: 29.1 µM [activator, single point] |
| Cc1ccc(NC(=O)/C(C#N)=C/c2ccccc2Cl)cc1C | inactive |
| CCN(CC)CCNC(=O)CN1C(=O)c2cccnc2Oc2ccc(C)cc21 | inconclusive: 29.1 µM [activator, single point] |
| Nc1nc(CSCCO)nc(Nc2ccccc2)n1 | inconclusive: 16.4 µM [activator, partial curve, poor fit] |
| Cc1ccc(S(=O)(=O)N2CCOCC2)cc1C(=O)N1CCN(S(=O)(=O)c2ccccc2F)CC1 | inconclusive: 23.1 µM [falling, single point] |
| Cc1nc(C(F)(F)F)c(C(=O)NC(=O)Nc2ccc(OC(F)(F)F)cc2)s1 | inconclusive: 2.59 µM [falling, full curve] |
| C=CC[n+]1c(-c2ccc(C)cc2)csc1Nc1ccc(NC(C)=O)cc1 | active: 6.51 µM |
| CCC(=O)N1CCN(c2ccccc2NC(=S)NC(=O)c2cccc([N+](=O)[O-])c2)CC1 | inconclusive: 14.6 µM [falling, partial curve, poor fit] |
| Cc1ccc(S(=O)(=O)N2CCN(c3ccc(C(=O)N4CCOCC4)cc3[N+](=O)[O-])CC2)cc1 | inconclusive: 32.6 µM [falling, single point] |
| O=C(Nc1ccc(Cl)cc1Cl)c1cc2ccccc2o1 | inconclusive: 1.46 µM [activator, full curve, poor fit] |
| CN(CC1CCOCC1)C(=O)c1ccc2nc(Cc3cccc(Cl)c3)oc2c1 | inconclusive: 11.6 µM [falling, partial curve] |
| Cc1cccc(-c2nnc(NC(=O)c3ccc(Cl)cc3)o2)c1 | inconclusive: 29.1 µM [falling, single point] |
| C#Cc1ccc([C@H]2C=C(C(=O)N3CCN(Cc4ccc5c(c4)OCO5)CC3)O[C@@H](OCc3ccc(CO)cc3)C2)cc1 | inconclusive: 16.4 µM [falling, partial curve, poor fit] |
| O=C(NC1CCCC1)c1cnn(-c2ccc(F)cc2F)c1C1CCNCC1 | inconclusive: 6.51 µM [falling, single point] |
| COc1cccc(N2CC(O)Cn3c2nc2c3c(=O)n(CCCc3ccccc3)c(=O)n2C)c1 (stereo not drawn) | inconclusive: 14.6 µM [falling, single point] |

Taken from above.
Entry for `O=C(Nc1ccc(Cl)cc1Cl)c1cc2ccccc2o1` under Potency: inconclusive: 1.46 µM [activator, full curve, poor fit]
Entry for `Cc1ccc(OCCNC(=O)/C=C/c2ccco2)cc1C` under Potency: inactive
